According to PubChem BioAssay AID504467 (National Center for Advancing Translational Sciences (NCATS), 2011):
In all, about 330,000 compounds went through this assay and about 7,700 (2.3%) were called active. Inconclusive means that the source gave no clear call. Such entries were picked first, then a sample of the others. The call rests on the fitted dose curve; in most records, active means well fitted inhibition curve with a large enough effect; inconclusive means small, poorly fitted or top-dose-only effect, or effect the other way; inactive means flat fitted curve, though single readings scatter. A potency beside an inconclusive call is a rough fit, not a confirmed value.

Assay: qHTS screen for small molecules that inhibit ELG1-dependent DNA repair in human embryonic kidney (HEK293T) cells expressing luciferase-tagged ELG1; further: nearly all actives have a fitted effect of over 55% in size
Details: HEK293T ELG1-luciferase reporter, luminescence, 16 h, DNA damage induced by 5-fluorouridine; activity change, negative = inhibition: at 46.1 µM (top of the series)
Method in brief: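 Step one: seed 2,000 cells per well. Step two: pin-transfer compound or DMSO alongside 5-fluorouridine. Step three: incubate 16 hr, 37 °C, 5% CO2. Step four: add ONE-Glo, wait 30 min, read luminescence.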
On the % scale 0 is the no-effect control and ±100 the full control effect; potency means the concentration at half of the fitted maximal effect.

Row | Compound | Potency | activity change, negative = inhibition
1 | COC(=O)Nc1nc2ccc(Sc3ccccc3)cc2[nH]1 | inconclusive: 18.4 µM [activator, single point] | –
2 | Cc1cccc(N(Cc2ccccc2)C(=O)C2CCN(C(=O)c3ccccc3C)CC2)c1 | – | inactive: -19.2%
3 | Oc1ccccc1N=Nc1ccccc1O | inconclusive: 3.66 µM [inhibitor, single point] | –
4 | Cc1cc(NC(=O)c2ccco2)ncc1NC(=O)Cc1ccccc1 | inconclusive: 23.1 µM [activator, partial curve] | –
5 | C[C@]12c3[nH]c4cc(-c5ccco5)ccc4c3CCN1C(=O)[C@@H](CC(=O)NCC13CC4CC(CC(C4)C1)C3)C[C@@H]2C(=O)N1CCOCC1 | inconclusive: 20.6 µM [inhibitor, single point] | –
6 | COc1ccccc1/C=C(\NC(=O)c1ccc(OC)c(OC)c1)C(=O)Nc1ccc([N+](=O)[O-])cc1 | inconclusive: 4.11 µM [inhibitor, full curve] | –
7 | Cc1cc(C[n+]2ncsc2N)c2ncccc2c1 | – | inactive: -4.34%
8 | CCOc1ccccc1Nc1nnc(SCC(=O)Nc2ccc3[nH]c(=O)[nH]c3c2)s1 | inconclusive: 20.6 µM [inhibitor, partial curve] | –
9 | Cc1cc(C)nc(SCC(=O)Nc2ccc(S(=O)(=O)NCCO)cc2)n1 | – | inactive: -1.44%
10 | O=[N+]([O-])c1cccc(S(=O)(=O)c2cccc([N+](=O)[O-])c2)c1 | – | inactive: 4.48%
11 | O=[N+]([O-])c1cc(NS(=O)(=O)c2ccc(Cl)nc2)ccc1Cl | – | inactive: -16.7%
12 | COc1ccc(OCC(=O)Nc2ccc(S(=O)(=O)Nc3cc(C)nc(C)n3)cc2)cc1 | inconclusive: 29.1 µM [inhibitor, single point] | –
13 | CN(C)c1cc2c(c(N(C)C)c1)C(=O)c1ccccc1C2=O | inconclusive: 18.4 µM [inhibitor, partial curve, poor fit] | –
14 | O=C1CS(=O)(=O)N(Cc2cccc(F)c2)c2ccc(Br)cc21 | inconclusive: 16.4 µM [activator, partial curve, poor fit] | –
15 | O=C(Nc1ccc(Cl)c(-c2nc3ccccc3[nH]2)c1)c1ccc2c(c1)OCO2 | active: 20.6 µM | –
16 | CC(=O)Nc1ccc(S(=O)(=O)N(C)CC(=O)OCC(=O)N(C)C2CCS(=O)(=O)C2)cc1 (stereo not drawn) | – | inactive: 4.03%
17 | C/C(=N/NC(=O)c1ccccn1)c1c[nH]c2ccccc12 | inconclusive: 16.4 µM [activator, partial curve] | –
18 | O=C(c1ccco1)c1cc2c(ccc3ccccc32)oc1=O | inconclusive: 25.9 µM [activator, partial curve, poor fit] | –
19 | COc1ccc(C(=O)Nc2ccc(NC(=O)C3CC3)nc2)cc1 | inconclusive: 32.6 µM [activator, partial curve, poor fit] | –
20 | CC1(C)CC(=O)c2cc(N=C/C(C(=O)c3ccccc3)=C(\O)c3ccccc3)c(=O)oc2C1 | inconclusive: 29.1 µM [activator, single point] | –
21 | CC(C)(C)c1ccc2oc(=O)cc(-c3cccc(-c4ccc(C(F)(F)F)cc4)c3)c2c1 | – | inactive: 10.3%
22 | Cc1ccc(-c2cc3nc(C)cc(C)n3n2)cc1 | inconclusive: 9.2 µM [activator, partial curve] | –

Full records from above. Values in the order: Potency	activity change, negative = inhibition
`C[C@]12c3[nH]c4cc(-c5ccco5)ccc4c3CCN1C(=O)[C@@H](CC(=O)NCC13CC4CC(CC(C4)C1)C3)C[C@@H]2C(=O)N1CCOCC1` is listed as inconclusive: 20.6 µM [inhibitor, single point]	–
`CC(C)(C)c1ccc2oc(=O)cc(-c3cccc(-c4ccc(C(F)(F)F)cc4)c3)c2c1` is listed as –	inactive: 10.3%

More entries:

Row | Compound | Potency | activity change, negative = inhibition
23 | O=C(COC(=O)c1c(F)cccc1Cl)NCC1CCCCC1 | inconclusive: 13 µM [activator, partial curve] | –
24 | CCOc1ccc(CCNC(=O)CCOc2cc(C)ccc2C)cc1OCC | – | inactive: -13.4%
25 | CCC(C)[C@H]1CNCCN1CCc1cccc2ccccc12 (stereo partly drawn) | – | inactive: 7.17%
26 | CC1CCCCC1NC(=O)c1c(O)nc2ccccn2c1=O (stereo not drawn) | inconclusive: 18.3 µM [activator, single point] | –
27 | COCCn1c(=O)[nH]c2cc(C(=O)NCCN3CCN(c4ccccc4F)CC3)ccc2c1=O | inconclusive: 3.26 µM [inhibitor, single point] | –
28 | Cn1c(CN2CCCC2)nc2cc(NC(=O)COc3ccc(Cl)cc3)ccc21 | – | inactive: -14.5%
29 | Cc1cc(NCCN2CCOCC2)n2ncc(-c3ccccc3)c2n1 | inconclusive: 5.17 µM [activator, full curve] | –
30 | COc1ccccc1NC(=S)N(Cc1ccco1)Cc1cc2ccc(C)c(C)c2[nH]c1=O | inconclusive: 9.2 µM [inhibitor, partial curve, poor fit] | –
31 | CCOc1ccc(NC(=O)CN2C(=O)C3CCCN3C2=O)cc1 (stereo not drawn) | inconclusive: 29.1 µM [activator, single point] | –
32 | CCCNC(=O)Cn1cnc2sc(C(=O)Nc3ccc4c(c3)OCO4)c(C)c2c1=O | inconclusive: 18.4 µM [activator, single point] | –
33 | CCCN1CCN(CCCNC(=O)c2ccc(CS(=O)c3ccccc3C)o2)CC1 (stereo not drawn) | – | inactive: 16%
34 | O=C(CC12CC3CC(CC(C3)C1)C2)N1CCCOC1 | – | inactive: 0.571%
35 | CC(C)(C)C1CCC(C(=O)Nc2nccs2)CC1 (stereo not drawn) | inconclusive: 18.3 µM [activator, partial curve] | –
36 | COc1ccc(-c2cc(C(F)F)n3ncc(C(=O)Nc4ccc(C(=O)N5CCOCC5)cc4)c3n2)cc1 | active: 2.59 µM | –
37 | CCOc1ccc(NC(=O)Cn2cc(C(C)=O)c3ccccc32)cc1 | – | inactive: -2.92%
38 | Cc1cc2cc(C#N)c(SCC(=O)Nc3nonc3C)nc2cc1C | inconclusive: 23.1 µM [activator, partial curve] | –
39 | COc1ccc(C(=O)CSc2nnc(Cn3nnc4ccccc43)n2C)cc1 | inconclusive: 32.6 µM [inhibitor, partial curve, poor fit] | –
40 | Cc1cc(S(=O)(=O)N2CCCOC2CNC(=O)C(=O)NCCc2ccco2)ccc1F (stereo not drawn) | inconclusive: 18.3 µM [inhibitor, single point] | –
41 | Cc1cc(C(=O)N/N=C/c2cc([N+](=O)[O-])ccc2O)c2ccccc2n1 | – | inactive: -28.9%
42 | O=C(CSc1nc2cc(Cl)ccc2c(=O)n1Cc1ccco1)Nc1ccc(S(=O)(=O)N2CCOCC2)cc1 | inconclusive: 9.2 µM [inhibitor, partial curve] | –
43 | CCN1CCN(c2cc(C)c3cc(NC(=S)N4CCN(c5ccccc5F)CC4)ccc3n2)CC1 | inconclusive: 18.3 µM [inhibitor, partial curve] | –
